Test results: publication PMC6108117
Results are given in words; binding and its absence hold for the method and conditions named.

By UniProt entry, the sequences of proteins in these tests, tags left out. Residues count along the entry.
UniProt P00750, residues 36-562: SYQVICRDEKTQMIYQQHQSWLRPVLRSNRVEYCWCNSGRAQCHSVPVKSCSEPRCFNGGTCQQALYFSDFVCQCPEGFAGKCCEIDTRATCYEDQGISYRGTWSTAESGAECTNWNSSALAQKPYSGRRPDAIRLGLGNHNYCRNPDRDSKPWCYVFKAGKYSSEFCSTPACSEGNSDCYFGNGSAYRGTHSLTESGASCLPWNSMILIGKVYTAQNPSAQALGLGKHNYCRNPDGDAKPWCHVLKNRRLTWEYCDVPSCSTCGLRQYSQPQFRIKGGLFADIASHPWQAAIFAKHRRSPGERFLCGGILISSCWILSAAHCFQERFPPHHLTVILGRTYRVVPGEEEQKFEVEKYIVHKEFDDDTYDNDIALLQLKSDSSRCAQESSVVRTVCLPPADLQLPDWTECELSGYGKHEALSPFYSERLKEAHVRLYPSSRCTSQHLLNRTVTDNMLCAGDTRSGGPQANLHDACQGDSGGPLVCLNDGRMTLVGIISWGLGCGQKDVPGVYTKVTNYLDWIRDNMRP
UniProt P09429: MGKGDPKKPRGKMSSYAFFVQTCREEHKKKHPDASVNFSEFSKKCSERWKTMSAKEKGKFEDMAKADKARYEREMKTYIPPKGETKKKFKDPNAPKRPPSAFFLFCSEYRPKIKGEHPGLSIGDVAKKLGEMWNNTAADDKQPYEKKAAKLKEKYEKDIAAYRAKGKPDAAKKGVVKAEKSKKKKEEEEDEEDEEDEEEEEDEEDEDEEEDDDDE

Target: Tissue-type plasminogen activator (UniProt P00750)
Test: BLI; BLItz system (ForteBio); proteins biotinylated and immobilised on streptavidin-coated biosensor tips, probed with the analytes, dissociation in sample dilution buffer; signals compared with those of an unloaded sensor; which partner was immobilised is not told; both purified

With “High-mobility group box 1 (from UniProt P09429 1-215)” the binding was “no binding”.
